{
  "source": "patent US4870002A",
  "about": "“Method of prevention of oxidative injury to cells” (priority 1985, dated 1989)",
  "key": {"[1]": {"tested_on": "Con A-Lu-BSA labeled pig RBCs", "assay": "Chemiluminescence of Con A-Lu-BSA labeled pig RBCs with exogenous hydrogen peroxide", "type": "cell-based", "details": "1.43 mM", "procedure": "The luminol-bovine serum albumin (Lu-BSA) complex was made by mixing 2 mg luminol (5-amino-2, 3-dihydrophthalazine-1,4-dione), 0.2 ml of 2 mg BSA/ml PBS (pH 6.9), and 1.6 ml of PBS, pH 6.9. The preparation was then passed through a 0.22 μm nitrocellulose filter to remove insoluble luminol. Next, 0.2 ml of 2 mg Con A/ml of PBS, pH 6.9, was added to the filtrate. After gentle mixing, 10 μl of 25% glutaraldehyde were added. The solution was incubated in the refrigerator for 1 hour. To stop the conjugation, 100 mg of glycine was added to the solution. The solution was then pressed through a 48 ml column of dextran gel filtration beads equilibrated with PBS, pH 6.9. The gel exclusion size was greater than 5000 for globular molecules. The fractions were collected and tested for luminescent labeling activity.\nOne ml of supernatant of each 10 ml aliquot of 1:20 diluted RBCs was replaced with 1 ml of Con A-Lu-BSA solution as previously described. The preparation was incubated for 15 min. at 37° C. in a water-jacketedcell culture incubator. The cells were then pelleted in a clinical centrifuge, resuspended in PBS, and washed in the same manner two additional times. The washed cells were maintained at 4° C. until used the same day of preparation. […]"}, "pig RBCs": {"tested_on": "pig RBCs", "assay": "Thermal fragility / hemolysis of RBCs (410 nm absorbance of supernatant)", "type": "cell-based", "details": "10 mM, 43° C.; RBCs 6 days post-collection", "procedure": "Blood was collected from Landrace-Duroc swine from a closed herd. Pigs from this herd had previously expressed episodes of porcine stress syndrome (malignant hyperthermia) following halothane anesthesia. The blood was collected into acidic citrated dextrose solution in standard blood bags. The blood was diluted 1:10 in phosphate (0.1M) buffered saline (PBS), pH 7.4, in 10 ml aliquots, centrifuged in a clinical centrifuge, and the erythrocytes were resuspended in fresh PBS. The cells were stored at 4° C. until used in the various assays. The post-collection chronological age of the RBCs used for a particular assay is noted in the results for each assay. The cells were counted in an automated cell counter (Coulter ZBI, Coulter Electronics, Inc., Hialeah, Fla. 33010).\nRed blood cells were heated in 1 or 1.5 ml aliquots of PBS pH 7.4 with or without additional reagents in cellulose nitrate or polypropylene centrifuge tubes. Two concentrations of cells were used as indicated in the results. […]\nHemoglobin released into the supernatants of the heated cells were determined by the method described in the above-incorporated reference of Kiel and Erwin (1984). In brief, the supernatants were collected following centrifugation in a clinical centrifuge, diluted 1:2 in PBS, pH 7.4, and the optical absorbances at 410 nm were determined in a dual beam spectrophotometer. […]"}},
  "note": "For at least one compound, name, drawing or mass did not settle the structure.",
  "data": [
    {"compound": "CC(=O)C(=O)O", "note": "[Pyruvate]", "values": [
      {"measurement": "effect on CL of labeled cells, in words", "setting": "[1]", "result": "doubled"},
      {"measurement": "change in hemolysis, in words", "setting": "pig RBCs", "result": "insignificant increases"}
    ]}
  ]
}
